Measurements taken from patent publication US20080089886A1.
No constants are given. Whether binding was seen depends on the method and setting. Some entries that bind do so weakly or less than the wild type.

Assays:
[1] = target: T1, recombinant C35 protein generated and purified from E. coli (human) (UniProt Q9BRT3); experiment: ELISA and Western blot
T1 sequence: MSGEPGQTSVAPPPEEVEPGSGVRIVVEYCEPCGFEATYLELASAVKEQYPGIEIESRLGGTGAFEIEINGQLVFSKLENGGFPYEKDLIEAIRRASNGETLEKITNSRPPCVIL

[2] = target: T1, recombinant C35 protein generated and purified from E. coli (human); experiment: ELISA, hybridoma supernatant on C35-coated plates
[3] = target: T1, recombinant C35 protein generated and purified from E. coli (human); experiment: Western blot with hybridoma supernatant (legend of FIG. 20)
[4] = target: T1, recombinant C35 protein generated and purified from E. coli (human); experiment: Western blot, 100 ng purified recombinant C35 per lane, β-galactosidase as control lane
[5] = target: T1, recombinant C35 protein generated and purified from E. coli (human); experiment: ELISA, plate coated with E. coli-derived C35 protein, hybridoma supernatant, HRP anti-mouse antibody, OPD
[6] = target: T1, recombinant C35 protein generated and purified from E. coli (human); experiment: Western blot, 100 ng purified recombinant C35 per lane, 18% SDS-PAGE, PVDF, hybridoma supernatant, goat anti-mouse IgG-HRP, ECL
[7] = target: T2, C35 protein, recombinant (bacterially synthesized) (human) (UniProt Q9BRT3); experiment: Western blot of recombinant C35 protein
T2 sequence: T1 sequence

[8] = target: T2, C35 protein, recombinant (bacterially synthesized) (human); experiment: ELISA screen of hybridoma supernatants on plates coated with C35 protein
[9] = target: T1, recombinant C35 protein generated and purified from E. coli (human); experiment: immunohistochemistry with soluble C35 protein as competitor (data not shown)

Measured: binding

B1: 3E10 hybridoma antibody (antibody, mouse IgG1, V domains shown)
VH: EVQLQESGPSLVKPSQTLSLTCSVTGDSITSGYWNWIRKFPGNKLEYVGYISYSGGTYYNPSLKSRISITRDTSKNHYYLQLNSVTTEDTATYYCARGAYYGGAFFPYFDVWGAGTTVTVSS
VL: DVQITQSPSFLAASPGETITINCRASKYISKHLVWYQEKPGETKKLLIYSGSTLQSGLPSRFSGSGSGTDFTLTISSLEPEDFAMYYCQQHNEYPLTFGAGTKLELK
not listed: [7] | [8] | [9]
binds: all other assays above

B2: murine monoclonal antibody 3E10 (antibody, IgG1, V domains shown)
VH: B1 VH
VL: B1 VL
binds: [7] | [8]

B3: 1F2 monoclonal antibody (antibody, mouse IgG1, V domains shown)
VH: DVQLQESGPGLVKPSQSLSLTCSVTGYSITSGYFWNWIRQFPGNKLEWMGYISYDGSNNSNPSLKNRISFTRDTSKNQFFLKFNSVTTDDSAAYYCTRGTTGFAYWGQGTLVTVSA
VL: QIVLTQSPAIMSASPGEKVTISCSASSSVSYMNWYQQKPGSSPKPWIYHTSNLASGVPARFSGSGSGTSYSLTISSMEAEDAATYYCQQYHSYPPTFGGGTKLEIK
not listed: [7] | [8]
binds: all other assays above

B4: 1E11 hybridoma antibody (antibody, mouse IgG1, V domains shown)
VH: B3 VH
VL: B3 VL
binds: [2] | [5]

B5: murine monoclonal antibody 1F2 (antibody, IgG1, V domains shown)
VH: B3 VH
VL: B3 VL
binds: [7] | [8]

B6: murine monoclonal antibody 1E11 (antibody, IgG1, V domains shown)
VH: B3 VH
VL: B3 VL
binds: [8]
